Source: article PMC5962530
Results are given in words; binding and its absence hold for the method and conditions named. Binding seen in cells or lysates may run through a third protein. Here binding means that the protein was enriched with, or labelled near, the bait; the list need not be complete. For some assays here: No binding means not detected with the bait.

Legend:
[1] = target: T1, biotin-URP (biotinylated unrelated peptide); experiment: affinity purification with mass spectrometry; biotin-GX1 pre-conjugated to Dynabeads M-280 Streptavidin; co-HUVEC lysate first cleared with bare beads (room temperature, 6 h) and with biotin-URP beads (4 °C overnight), then incubated with GX1 beads at 4 °C for 36 h; ~70 kDa Coomassie band excised, trypsin digested, Q-Exactive MS; only the target purified
T1 sequence (peptide, biotinylated (position not stated); cyclo-peptide): CNKSPSGNC

[2] = target: T2, biotin-GX1 (biotinylated peptide GX1); experiment: as above
T2 sequence (peptide, biotinylated (position not stated); cyclic peptide): CGNSNPKSC

B1: transglutaminase-2 (TGM2) (protein, UniProt P21980 1-687)
chain: MAEELVLERCDLELETNGRDHHTADLCREKLVVRRGQPFWLTLHFEGRNYEASVDSLTFSVVTGPAPSQEAGTKARFPLRDAVEEGDWTATVVDQQDCTLSLQLTTPANAPIGLYRLSLEASTGYQGSSFVLGHFILLFNAWCPADAVYLDSEEERQEYVLTQQGFIYQGSAKFIKNIPWNFGQFEDGILDICLILLDVNPKFLKNAGRDCSRRSSPVYVGRVVSGMVNCNDDQGVLLGRWDNNYGDGVSPMSWIGSVDILRRWKNHGCQRVKYGQCWVFAAVACTVLRCLGIPTRVVTNYNSAHDQNSNLLIEYFRNEFGEIQGDKSEMIWNFHCWVESWMTRPDLQPGYEGWQALDPTPQEKSEGTYCCGPVPVRAIKEGDLSTKYDAPFVFAEVNADVVDWIQQDDGSVHKSINRSLIVGLKISTKSVGRDEREDITHTYKYPEGSSEEREAFTRANHLNKLAEKEETGMAMRIRVGQSMNMGSDFDVFAHITNNTAEEYVCRLLLCARTVSYNGILGPECGTKYLLNLNLEPFSEKSVPLCILYEKYRDCLTESNLIKVRALLVEPVINSYLLAERDLYLENPEIKIRILGEPKQKRKLVAEVSLQNPLPVALEGCTFTVEGAGLTEEQKTVEIPDPVEAGEEVKVRMDLLPLHMGLHKLVVNFESDKLKAVKGFRNVIIGPA
[1]
  binding: no binding
[2]
  binding: binds
